Percent effect of library compounds

The chains behind the UniProt entries cited, without tags or fusion partners. Residues count along the entry.
UniProt Q8IDJ8, 1-583: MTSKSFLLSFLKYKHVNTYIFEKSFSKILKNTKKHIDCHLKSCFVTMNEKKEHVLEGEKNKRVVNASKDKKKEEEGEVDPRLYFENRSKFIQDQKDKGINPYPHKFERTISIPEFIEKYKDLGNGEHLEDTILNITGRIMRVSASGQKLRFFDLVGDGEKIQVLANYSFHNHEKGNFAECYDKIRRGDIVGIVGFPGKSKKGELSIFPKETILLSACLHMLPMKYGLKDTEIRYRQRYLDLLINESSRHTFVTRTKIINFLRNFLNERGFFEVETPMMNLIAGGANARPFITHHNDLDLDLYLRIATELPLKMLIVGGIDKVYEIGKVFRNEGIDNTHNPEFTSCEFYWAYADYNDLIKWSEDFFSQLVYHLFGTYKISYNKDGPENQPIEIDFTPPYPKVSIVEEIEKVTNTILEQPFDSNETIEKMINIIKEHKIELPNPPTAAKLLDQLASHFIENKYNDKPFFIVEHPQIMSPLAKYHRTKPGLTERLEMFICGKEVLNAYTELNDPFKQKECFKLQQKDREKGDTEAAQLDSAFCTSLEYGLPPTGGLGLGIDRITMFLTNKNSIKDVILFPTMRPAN

Each number is a percent effect as filed.
The controls that fix the scale are not given in the record; negative values are as filed.
The compounds are a random part of those screened.

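Lysine-tRNA ligase, Plasmodium falciparum 3D7 (UniProt Q8IDJ8). Enzyme assay of the cytosolic lysyl-tRNA synthetase in 384-well plates, read by luminescence. Compounds at 30 µM. Direction is inferred from only a few compounds that gave an IC50; most scored high, so higher reads as stronger inhibition. Of about 69,000 compounds tested this way, about 49 (0.071%) reached 50% or more in at least one test.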

SMILES	percent effect
N#Cc1cccc(C(=O)N2CCN(c3ncccn3)CC2)c1	-0.5953%
Cc1nc(CN(CCS(C)(=O)=O)C(C)(C)C)no1	0.4589%
Nc1cncc(C(=O)N2Cc3ccccc3OC3(CCOCC3)C2)c1	-1.79%
Cc1ccc(C)c(OCCN(C)C(=O)C2CCCN2C(N)=O)c1C (centres unmarked)	5.437%
CSc1ccsc1C(=O)NS(=O)(=O)c1cnn(C)c1	7.195%
CC(C)COC(=O)N1CCCN(C(C)c2nnc(CC(C)C)o2)CC1 (centres unmarked)	-5.08%
CN1CCCCC1c1cncc(N2CCC(O)CC2)n1 (centres unmarked)	-1.195%
CC(Cn1ccnc1)NC(=O)NCCc1cccs1 (centres unmarked)	3.135%
COc1ccc(OC2CCN(C(=O)c3cnc(C)s3)CC2)cc1	3.775%
CCc1ccc(C(COC)NC(=O)c2ccc(O)nc2)o1 (centres unmarked)	7.504%
CCN1CCCC(CN(C)c2nccc(-c3ccc(C)nc3C)n2)C1 (centres unmarked)	3.051%
COCCN(Cc1cccs1)c1nc(CCN)nc2ccccc12	5.554%
COc1ccc(CNC(=O)NCC2CCOC2)c(C(F)(F)F)c1 (centres unmarked)	4.421%
O=C(O)CN1CCC(F)(F)C2(CCN(c3ccccn3)C2)C1 (centres unmarked)	3.147%
CC(C)(C)C(O)CN1CCN(CC(=O)NCC(F)(F)F)CC1 (centres unmarked)	5.846%
COCCN1CCOCC12CCN(c1nccs1)CC2	2.499%
Cc1c(NCc2ccccc2C#N)cccc1-n1cnnn1	8.829%
Cc1ccsc1[C@@H]1CCN(C(=O)CCc2cc(O)no2)C[C@H]1O	2.646%
CCC(CC)NC(=O)CN1CCN(C(=O)N(C)C)CC1	-0.5982%
COc1cccc2c1OCC(CNC(=O)CSc1ccccn1)C2 (centres unmarked)	-0.07379%
O=C(NCC(O)c1ccc(F)c(F)c1)c1cccnc1OCC(F)(F)F (centres unmarked)	0.3544%
CN(C)C(=O)[C@@H]1CCO[C@@H]2CCN(CCOCc3ccccc3)C[C@H]21	-0.9923%
Cc1ccc(CN2CCC[C@]3(C(=O)O)CN(C)C[C@@H]3C2)s1	4.708%
Cc1cc(C)n(CC2CCCN2Cc2cscn2)n1 (centres unmarked)	0.3537%
Fc1cc(Oc2ccc(C(F)(F)F)cn2)cc(F)c1CN1CCCC1	-0.707%
CC(CCc1ccccc1)N1CCC(C(=O)Nc2cnccn2)CC1 (centres unmarked)	7.457%
COc1ncccc1C(=O)N1CCCC1c1nc(-c2ccccc2)no1 (centres unmarked)	1.228%
O=S(=O)(C1CC1)N1CCc2ncnc(-c3ccncc3)c2CC1	0.9442%
Cc1ccccc1C(C(=O)O)N(C)CC1CCOCC1 (centres unmarked)	-0.08242%
Cc1ccn(CC(=O)NCCCOc2ccccc2F)c(=O)c1	2.981%
O=C(N1CCCC1)N1CCC2(CC(=O)N(c3ccc4c(c3)OCO4)C2)C1 (centres unmarked)	1.771%
CNC(=O)c1ccc(OC2CCN(S(C)(=O)=O)CC2)c(Cl)c1	9.932%
O=C1c2cnc(N3CCCC3)nc2CN1C1CCS(=O)(=O)C1 (centres unmarked)	5.953%
CNC(=O)CN1CCOCC2(CCCN(Cc3cccnc3)C2)C1 (centres unmarked)	0.8068%
CC(C)Nc1cc(N2CCCC3(CN(C)C(=O)O3)C2)ncn1 (centres unmarked)	-9.154%
Nc1nc2c(c3c1C(=O)NC3=O)CCC2	1.345%
NCC1[C@H]2CN(CCc3ccccc3)C[C@@H]12 (some centres unmarked)	-6.605%
CCSc1nc(N)c(NC(=O)c2ccc(C)cc2)c(=O)[nH]1	2.456%
Cc1nc(CSCCC(=O)NCc2ccc(-n3cncn3)nc2)cs1	0.2111%
O=C(NCc1csc2ccccc12)NCC1(O)CCSC1 (centres unmarked)	3.596%
CN(Cc1cc2cc(F)ccc2[nH]1)c1cc(C2CCCNC2)ncn1 (centres unmarked)	3.338%
CC(C)N1CCC(C(=O)N2CCc3c(nc(CC4CC4)[nH]c3=O)C2)CC1	4.949%
Cc1ccc2c(n1)N(C)CCN(C(=O)NC(C)C)C2	4.217%
CN1CCCN(C(=O)NCCNc2ncccc2C#N)CC1	2.709%
CCOc1cc(/C=C/c2ncc(C(=O)NC)s2)ccc1OC	4.155%
Cc1ccc(CN(C(=O)C(C)NC(N)=O)C2CC2)cc1C (centres unmarked)	2.229%
CCCC(Nc1c(C#N)c(=O)n(C)c(=O)n1C)c1ccc(F)cc1F (centres unmarked)	14.45%
CCc1cnc(N)nc1NCc1ccc(OC)cc1OC	-1.282%
CCCc1noc(CCC(=O)NC(C)c2nnc3n2CCCCC3)n1 (centres unmarked)	2.434%
Cc1ccccc1N1CCN(C(=O)c2cnc(C3CC3)nc2)C(C)C1 (centres unmarked)	9.48%
Cc1nn(C)c(C)c1CCC(=O)N1CCN(CCn2cncn2)CC1	1.085%
CCNC(=O)NC(=O)CNc1cc(C#N)ccc1OCC	0.8375%
COc1ccccc1C(=O)N(Cc1nc(C)cs1)CC1CCCO1 (centres unmarked)	0.5701%
CCN(C(=O)c1ccc(-c2ccccc2)nc1C)C1CC(=O)NC1=O (centres unmarked)	4.591%
CC(C)(CNC(=O)C1(c2cccc(Br)c2)CCOCC1)C(=O)O	0.3481%
OC1(CNc2ccc(-c3nc(C4CC4)no3)cn2)CCCCC1	-3.62%
CC(C)CC(=O)NCCn1nc(C2CCNC2)c2cccnc21 (centres unmarked)	8.159%
CC(C)CCc1nc(CNCC2CCCN2c2cccnn2)cs1 (centres unmarked)	-0.7173%
c1cnn(CCNCc2ccc(N3CCCCC3)cc2)c1	1.424%
Cc1nnc(CNC(=O)C2CSCCC(=O)N2)o1 (centres unmarked)	-4.999%
COC(=O)c1cccn1C1CCN(C(=O)c2c(C)noc2C)CC1	-1.906%
Cc1nn(CC(C)C)c(N(C)C)c1CNCCS(C)(=O)=O	-2.964%
Cc1cc(CS(=O)(=O)N(C)C(C)c2ccc(Cl)cc2)on1 (centres unmarked)	7.941%
CCN1CCn2c(C)cnc2C12CCN(C(=O)NCC(C)C)CC2	4.705%
CC(NC(=O)CCOc1ccccc1Cl)c1nnc2n1CCC2 (centres unmarked)	1.445%
CN(Cc1ncnn1C)c1ccnc(Cc2ccccc2)n1	2.94%
Cc1nnc2n1CCN(c1nc3ccccc3o1)C2	2.455%
Cc1ccsc1C1CCCCCN1Cc1cn(C)nc1C (centres unmarked)	1.803%
Cc1ccc(N2CCCC(NCc3ccc(C)o3)C2)nn1 (centres unmarked)	1.331%
CC(C)NC(=O)c1ccc2nnc(C3CN(C)CCN3C)n2c1 (centres unmarked)	4.498%
CCc1nn(-c2cc(Oc3cc(C)ccc3C)ncn2)c(N)c1C#N	-0.1829%
COC(=O)c1ccc(N2CCN(C(=O)c3cnn(C)c3)C(C)C2)cc1 (centres unmarked)	5.677%
CC(C)NC(=O)c1cc2c(nc1N(C)C)CCN(S(=O)(=O)C1CC1)CC2	4.073%
CCOc1cccc(NC(=O)c2cc[nH]n2)n1	4.928%
CC(C)(C)c1nc(CNc2ccccc2SCCC(N)=O)cs1	2.352%
O=C(c1csc(-c2ccc(C(F)(F)F)cc2)n1)N1CCCNCC1	11.52%
CCCc1n[nH]c(=O)n1Cc1ccccc1F	4.19%
Cn1ccnc1CN(CCO)C(=O)c1nc2ccccc2s1	1.298%
Cc1cnc(CN(C)C2CCCN(Cc3noc(C4CC4)n3)C2)cn1 (centres unmarked)	-0.7541%

Some entries from above, unchanged:

SMILES	percent effect
Nc1nc2c(c3c1C(=O)NC3=O)CCC2	1.345%
CC(C)NC(=O)c1cc2c(nc1N(C)C)CCN(S(=O)(=O)C1CC1)CC2	4.073%
Cc1ccsc1C1CCCCCN1Cc1cn(C)nc1C (centres unmarked)	1.803%
OC1(CNc2ccc(-c3nc(C4CC4)no3)cn2)CCCCC1	-3.62%
CCc1ccc(C(COC)NC(=O)c2ccc(O)nc2)o1 (centres unmarked)	7.504%
COc1ccccc1C(=O)N(Cc1nc(C)cs1)CC1CCCO1 (centres unmarked)	0.5701%

Data taken from ChEMBL document CHEMBL3988442, “University of Dundee, Small-Polar-MMV Screening Library” (2021).